Data source: PubChem BioAssay AID1224830 (NIAID, 2016)
In all, the deposit lists about 18,000 reagents; shown is an unselected part. In the full data, about 2,900 (16%) were called active. 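Calls are made per well; low scores hint the gene aids the LPS response, high scores that it dampens it.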 Unmarked entries are inactive. Repeated entries: four replicate wells of each siRNA pool.

Purpose: 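Regulators of TLR4 signalling towards TNF-alpha in macrophage-like cells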 (primary screen)
System: human THP-1 monocytic leukaemia cells, TNF dual-luciferase reporter clone, PMA-differentiated to macrophage-like cells
Knock-down reagent: siRNA pool against human genes, 50 nM
Duration: LPS for 4 h, given about 3 days after siRNA transfection
Challenge: bacterial LPS (TLR4 ligand), 10 ng/ml
Measured: 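TNF firefly reporter luminescence divided by renilla, normalised to the plate median, then turned into a robust z-score for each replicate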
Scale: TNF reporter robust z-score: higher = stronger TNF reporter response to LPS
Call rule: 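Each well counts as active if its z-score is over 2.8 or under -1.5; controls are left without a call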

| gene | TNF reporter robust z-score |
| --- | --- |
| FAM120A (GeneID 23196) | -0.72 |
| FAM120A (GeneID 23196) | -0.54 |
| FAM120A (GeneID 23196) | -0.88 |
| FAM120A (GeneID 23196) | -0.3 |
| GOLT1A (GeneID 127845) | 1.55 |
| GOLT1A (GeneID 127845) | 1.45 |
| GOLT1A (GeneID 127845) | 0.62 |
| GOLT1A (GeneID 127845) | 2.98 (active) |
| G3BP2 (GeneID 9908) | -0.79 |
| G3BP2 (GeneID 9908) | -0.99 |
| G3BP2 (GeneID 9908) | -0.76 |
| G3BP2 (GeneID 9908) | 0.13 |
| PRMT1 (GeneID 3276) | 0.14 |
| PRMT1 (GeneID 3276) | -0.22 |
| PRMT1 (GeneID 3276) | 1.72 |
| PRMT1 (GeneID 3276) | 0.03 |
| DSP (GeneID 1832) | -0.53 |
| DSP (GeneID 1832) | -0.81 |
| DSP (GeneID 1832) | -1.43 |
| DSP (GeneID 1832) | -0.4 |
| H2AC14 (GeneID 8331) | 0.65 |
| H2AC14 (GeneID 8331) | 0.44 |
| H2AC14 (GeneID 8331) | 0.99 |
| H2AC14 (GeneID 8331) | 0.92 |
| POFUT4 (GeneID 170384) | -0.68 |
| POFUT4 (GeneID 170384) | -0.54 |
| POFUT4 (GeneID 170384) | 0.19 |
| POFUT4 (GeneID 170384) | -0.51 |
| UBE2C (GeneID 11065) | 2.75 |
| UBE2C (GeneID 11065) | -0.8 |
| UBE2C (GeneID 11065) | 0.21 |
| UBE2C (GeneID 11065) | -0.01 |
| SYTL4 (GeneID 94121) | -1.38 |
| SYTL4 (GeneID 94121) | -1.07 |
| SYTL4 (GeneID 94121) | -1.32 |
| SYTL4 (GeneID 94121) | 0.19 |
| ABCA4 (GeneID 24) | -0.38 |
| ABCA4 (GeneID 24) | 1.18 |
| ABCA4 (GeneID 24) | 0.2 |
| ABCA4 (GeneID 24) | -1.01 |
| MICOS13 (GeneID 125988) | -1.69 (active) |
| MICOS13 (GeneID 125988) | -1.87 (active) |
| MICOS13 (GeneID 125988) | -2.12 (active) |
| PRKACB (GeneID 5567) | -0.6 |
| PRKACB (GeneID 5567) | 1.31 |
| PRKACB (GeneID 5567) | 0.39 |
| TTBK1 (GeneID 84630) | 0.22 |
| TTBK1 (GeneID 84630) | 0.2 |
| TTBK1 (GeneID 84630) | -0.56 |
| TTBK1 (GeneID 84630) | 0.61 |
| CDC16 (GeneID 8881) | -0.1 |
| CDC16 (GeneID 8881) | 0.07 |
| CDC16 (GeneID 8881) | 0.27 |
| CDC16 (GeneID 8881) | 0.53 |
| NACA2 (GeneID 342538) | 1.85 |
| NACA2 (GeneID 342538) | 0.3 |
| NACA2 (GeneID 342538) | -0.31 |
| NACA2 (GeneID 342538) | -0.53 |

The list goes on, starting with the last 12 of the part before.
| gene | TNF reporter robust z-score |
| --- | --- |
| TTBK1 (GeneID 84630) | 0.22 |
| TTBK1 (GeneID 84630) | 0.2 |
| TTBK1 (GeneID 84630) | -0.56 |
| TTBK1 (GeneID 84630) | 0.61 |
| CDC16 (GeneID 8881) | -0.1 |
| CDC16 (GeneID 8881) | 0.07 |
| CDC16 (GeneID 8881) | 0.27 |
| CDC16 (GeneID 8881) | 0.53 |
| NACA2 (GeneID 342538) | 1.85 |
| NACA2 (GeneID 342538) | 0.3 |
| NACA2 (GeneID 342538) | -0.31 |
| NACA2 (GeneID 342538) | -0.53 |
| SLC4A3 (GeneID 6508) | 1.13 |
| SLC4A3 (GeneID 6508) | 0.51 |
| SLC4A3 (GeneID 6508) | 0.17 |
| SLC4A3 (GeneID 6508) | 1.76 |
| ROR2 (GeneID 4920) | -1.62 (active) |
| ROR2 (GeneID 4920) | -0.62 |
| ROR2 (GeneID 4920) | 0.66 |
| ROR2 (GeneID 4920) | -0.05 |
| AKAP1 (GeneID 8165) | -0.28 |
| AKAP1 (GeneID 8165) | -0.79 |
| AKAP1 (GeneID 8165) | -1.39 |
| AKAP1 (GeneID 8165) | -0.03 |
| CFAP221 (GeneID 200373) | -0.35 |
| CFAP221 (GeneID 200373) | -0.51 |
| CFAP221 (GeneID 200373) | -0.19 |
| CFAP221 (GeneID 200373) | -0.34 |
| MISP (GeneID 126353) | -0.18 |
| MISP (GeneID 126353) | 1.66 |
| MISP (GeneID 126353) | 0.8 |
| MISP (GeneID 126353) | 0.51 |
| TC2N (GeneID 123036) | -1.03 |
| TC2N (GeneID 123036) | 0.16 |
| TC2N (GeneID 123036) | -1.02 |
| TC2N (GeneID 123036) | -0.22 |
| PCYOX1L (GeneID 78991) | -0.18 |
| PCYOX1L (GeneID 78991) | -0.34 |
| PCYOX1L (GeneID 78991) | 0.01 |
| PCYOX1L (GeneID 78991) | -0.14 |
| EXOC1 (GeneID 55763) | -0.14 |
| EXOC1 (GeneID 55763) | 0.22 |
| EXOC1 (GeneID 55763) | -0.34 |
| EXOC1 (GeneID 55763) | -0.2 |
| A4GNT (GeneID 51146) | -0.8 |
| A4GNT (GeneID 51146) | -1.19 |
| A4GNT (GeneID 51146) | -0.48 |
| A4GNT (GeneID 51146) | 0.09 |
| SERPINB12 (GeneID 89777) | -0.48 |
| SERPINB12 (GeneID 89777) | -0.52 |
| SERPINB12 (GeneID 89777) | -0.25 |
| SERPINB12 (GeneID 89777) | -1.39 |
| DR1 (GeneID 1810) | 1.44 |
| DR1 (GeneID 1810) | 0.45 |
| DR1 (GeneID 1810) | 3.13 (active) |
| DR1 (GeneID 1810) | 2.21 |
| GLIS3 (GeneID 169792) | -0.84 |
| GLIS3 (GeneID 169792) | 0.89 |
| GLIS3 (GeneID 169792) | 0.13 |
| GLIS3 (GeneID 169792) | 0.24 |
| GRSF1 (GeneID 2926) | -0.73 |
| GRSF1 (GeneID 2926) | -0.46 |
| GRSF1 (GeneID 2926) | -0.65 |
| GRSF1 (GeneID 2926) | -0.43 |
